Assay [1] addresses cynomolgus monkey CD71 extracellular domain (CD71-ECD) (cynomolgus monkey). In words: capture ELISA: 20 nM antigen on a Neutravidin plate, FN3 domain titrated, chemiluminescence (CL). In general terms: In an ELISA, binding on a coated surface is turned into a signal by an enzyme label.
The target of assay [2] is human CD71 extracellular domain (CD71-ECD) (human) (UniProt P02786). The description is as above.

Positions count from the first letter of the chain named. These are yes or no findings as the source states them, for the method shown. Some entries that bind do so weakly or less than the wild type.

B1: CD71-binding FN3 domain of SEQ ID NO: 472 (designed binder)
chain: MLPAPKNLVVSRVTEDSARLSWTAPDAAFDSFFIGYLEPQPPGEAIELYVPGSERSYDLTGLKPGTEYNVTIQGVKGGFPSLPLVATFTT
As for B1, the binding entry in assay [1] was “binds”.

B2: CD71-binding FN3 domain of SEQ ID NO: 478 (designed binder)
chain: B1 chain with E47H, L82V, V85I, T87K
As to B2, in assay [1], the binding result is listed as “binds”.

B3: CD71-binding FN3 domain of SEQ ID NO: 373 (designed binder)
chain: B1 chain with E47S, Y49F, L82D, T87S
For the molecule B3, the binding result in assay [1] was “binds”.

B4: CD71-binding FN3 domain of SEQ ID NO: 465 (designed binder)
chain: B1 chain with E47D, L82E, V85W, T87D
Turning to B4, the binding result in assay [1] is on record as “binds”.

B5: CD71-binding FN3 domain of SEQ ID NO: 476 (designed binder)
chain: B1 chain with E47H, Y49Q, L82I, V85I, T87V
In the case of B5, the binding result in assay [1] and in assay [2] was “binds” in each case.

B6: CD71-binding FN3 domain of SEQ ID NO: 483 (designed binder)
chain: B1 chain with E47T, Y49V, L82D, T87S
Consider B6, for which the binding entry in assay [1] is “binds”.

B7: CD71-binding FN3 domain of SEQ ID NO: 516 (designed binder)
chain: B1 chain with E47S, Y49W, L82S, T87Y
For the molecule B7, the binding entry in assay [1] is on record as “binds”.

B8: CD71-binding FN3 domain of SEQ ID NO: 496 (designed binder)
chain: B1 chain with E47I, Y49W, L82V, V85I, T87Q
For the molecule B8, the binding result in assay [1] is recorded as “binds”.

B9: CD71-binding FN3 domain of SEQ ID NO: 400 (designed binder)
chain: B1 chain with E47H, Y49F, L82G, V85H
Regarding B9, the binding entry in assay [1] is recorded as “binds”.

B10: CD71-binding FN3 domain of SEQ ID NO: 529 (designed binder)
chain: B1 chain with E47D, V85Q, T87H
B10: the binding result in assay [1] is recorded as “binds”.

B11: CD71-binding FN3 domain of SEQ ID NO: 508 (designed binder)
chain: B1 chain with E47T, Y49S, L82E, V85I, T87I
For B11, the binding entry in assay [1] was “binds”.

B12: CD71-binding FN3 domain of SEQ ID NO: 473 (designed binder)
chain: B1 chain with E47D, Y49W, V85S, T87S
For the molecule B12, the binding entry in assay [1] is recorded as “binds”.

B13: CD71-binding FN3 domain of SEQ ID NO: 447 (designed binder)
chain: B1 chain with E47Y, L82Y, V85T, T87Q
Regarding B13, the binding entry in assay [1] was “binds”.

The values above are taken from patent US20260151494A1.
